Assay results from US20240376188A1 (UNIVERSITY OF NORTH CAROLINA AT CHAPEL HILL, published 2024).
Positions count from the first letter of the chain named. Results are given in words; binding and its absence hold for the method and conditions named. Some results given as binding are weak or reduced against the parent protein; the word gives no strength. Ends that are not written are not given here.

Key:
[1] = target: Ac-K280 tau in human Braak VI Alzheimer's disease post-mortem brain (neurofibrillary tangles, plaque-associated pathology) (human) (UniProt P10636); assay: immunohistochemistry, AD brain (legend of FIG. 7)
[2] = target: Ac-K280 tau in human Braak VI Alzheimer's disease post-mortem brain (neurofibrillary tangles, plaque-associated pathology) (human) (UniProt P10636); assay: immunohistochemistry, human Braak VI AD brain sections, antibody at 1:25
[3] = target: Ac-K280 tau in human Braak VI Alzheimer's disease post-mortem brain (neurofibrillary tangles, plaque-associated pathology) (human) (UniProt P10636); assay: immunohistochemistry, cortical sections of four AD patients, antibody at 1:25 (FIG. 14A)
[4] = target: Ac-K311 tau in human Braak VI Alzheimer's disease post-mortem brain (neurofibrillary tangles, plaque-associated pathology) (human) (UniProt P10636); assay: immunohistochemistry, cortical sections of four AD patients, antibody at 1:25 (FIG. 14B)

B1: 19B6 (antibody, V domains shown)
VH: EVQLQQSGAEFVRPGASVKLSCTVSGLNIEDDYIQWLKQRPEQGLEWIGWIDPENGDPKYASKFQGKATLTADTSSKIAYLHLSSLTSEDTAVYYCATRGLWGQGTTLTVSS
VL: QIVLTQSPAIMSASLGERVTMTCTASSSVSSSYFHWYQQKPGSSPKLWIYSTSNLASGVPVRFSGSGSGTSYSLTISSMEAEDAATYYCHQYHRSPLTFGAGTKLELK
notes: Used as hybridoma supernatant in the peptide ELISA; also called Ac-K280 clone 19B6
For B1, the binding [1] was “binds”, the binding [2] was “binds” and the binding [3] was “binds”.

B2: 17G8 (antibody, V domains shown)
VH: B1 VH
VL: B1 VL
notes: Used as hybridoma supernatant in the peptide ELISA; also called Ac-K280 clone 17G8
In the case of B2, the binding [1] is reported as “binds”, the binding [2] is reported as “binds” and the binding [3] is reported as “binds”.

B3: 14G8 (antibody, V domains shown)
VH: EVQLQQSGAELVRPGSSVKMSCKTSGYTFTNYGLNWVKQRPGQGLEWIGYIYIGNGYTDYNENFKGKATLTSDTSSSTAYMQLSSLTSEDSAIYFCARWRPGYFFDYWGQGTTLTVSS
VL: DVLMTQTPLSLPVGLGDQASISCRSSQNIVHSNGDTYLEWYLLKPGQSPQLLIYKVSNRFSGVPDRFSGGGSGTDFILKISRVEAEDLGVYYCFQSSLVPLTFGAGTKLELK
In the case of B3, the binding [4] is reported as “binds”.

B4: 15E8 (antibody, V domains shown)
VH: EVQLQQSGAELVRPGSSVKMSCKTSGYTFTNYGLNWVKQRPGQGLEWIGYIYIGNGYTDYNENFKGKATLTSDTSSSTAYMQLSSLTSEDSAIYFCARWRPGYFFDYWGQGTTLTVS
VL: B3 VL with G14S, S32T, I77T, Y92F
In the case of B4, the binding [4] is reported as “binds”.
